# In paper doi:10.1101/2025.05.02.25326757:
# Chains of the proteins cited; added tags and fusions are not shown.
# UniProt Q02446: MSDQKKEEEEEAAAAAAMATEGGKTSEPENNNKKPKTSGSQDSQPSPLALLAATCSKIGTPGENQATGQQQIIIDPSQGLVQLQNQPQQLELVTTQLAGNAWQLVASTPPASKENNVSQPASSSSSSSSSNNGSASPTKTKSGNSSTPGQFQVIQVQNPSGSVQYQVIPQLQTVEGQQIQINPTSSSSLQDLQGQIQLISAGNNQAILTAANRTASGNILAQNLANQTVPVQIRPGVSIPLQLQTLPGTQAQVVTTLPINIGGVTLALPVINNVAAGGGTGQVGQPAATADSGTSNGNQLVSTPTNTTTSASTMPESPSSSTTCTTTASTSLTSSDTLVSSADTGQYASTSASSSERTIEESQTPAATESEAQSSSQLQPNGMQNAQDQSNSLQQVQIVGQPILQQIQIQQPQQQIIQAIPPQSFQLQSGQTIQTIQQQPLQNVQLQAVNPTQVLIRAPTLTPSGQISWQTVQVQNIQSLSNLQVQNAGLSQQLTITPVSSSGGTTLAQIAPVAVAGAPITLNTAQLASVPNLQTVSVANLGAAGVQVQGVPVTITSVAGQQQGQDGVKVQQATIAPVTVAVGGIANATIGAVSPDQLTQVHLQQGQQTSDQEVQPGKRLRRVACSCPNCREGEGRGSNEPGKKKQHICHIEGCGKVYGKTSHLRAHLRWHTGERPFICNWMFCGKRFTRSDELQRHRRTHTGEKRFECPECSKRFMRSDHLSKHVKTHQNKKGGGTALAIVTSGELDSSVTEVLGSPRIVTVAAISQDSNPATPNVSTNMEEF
# UniProt O15047: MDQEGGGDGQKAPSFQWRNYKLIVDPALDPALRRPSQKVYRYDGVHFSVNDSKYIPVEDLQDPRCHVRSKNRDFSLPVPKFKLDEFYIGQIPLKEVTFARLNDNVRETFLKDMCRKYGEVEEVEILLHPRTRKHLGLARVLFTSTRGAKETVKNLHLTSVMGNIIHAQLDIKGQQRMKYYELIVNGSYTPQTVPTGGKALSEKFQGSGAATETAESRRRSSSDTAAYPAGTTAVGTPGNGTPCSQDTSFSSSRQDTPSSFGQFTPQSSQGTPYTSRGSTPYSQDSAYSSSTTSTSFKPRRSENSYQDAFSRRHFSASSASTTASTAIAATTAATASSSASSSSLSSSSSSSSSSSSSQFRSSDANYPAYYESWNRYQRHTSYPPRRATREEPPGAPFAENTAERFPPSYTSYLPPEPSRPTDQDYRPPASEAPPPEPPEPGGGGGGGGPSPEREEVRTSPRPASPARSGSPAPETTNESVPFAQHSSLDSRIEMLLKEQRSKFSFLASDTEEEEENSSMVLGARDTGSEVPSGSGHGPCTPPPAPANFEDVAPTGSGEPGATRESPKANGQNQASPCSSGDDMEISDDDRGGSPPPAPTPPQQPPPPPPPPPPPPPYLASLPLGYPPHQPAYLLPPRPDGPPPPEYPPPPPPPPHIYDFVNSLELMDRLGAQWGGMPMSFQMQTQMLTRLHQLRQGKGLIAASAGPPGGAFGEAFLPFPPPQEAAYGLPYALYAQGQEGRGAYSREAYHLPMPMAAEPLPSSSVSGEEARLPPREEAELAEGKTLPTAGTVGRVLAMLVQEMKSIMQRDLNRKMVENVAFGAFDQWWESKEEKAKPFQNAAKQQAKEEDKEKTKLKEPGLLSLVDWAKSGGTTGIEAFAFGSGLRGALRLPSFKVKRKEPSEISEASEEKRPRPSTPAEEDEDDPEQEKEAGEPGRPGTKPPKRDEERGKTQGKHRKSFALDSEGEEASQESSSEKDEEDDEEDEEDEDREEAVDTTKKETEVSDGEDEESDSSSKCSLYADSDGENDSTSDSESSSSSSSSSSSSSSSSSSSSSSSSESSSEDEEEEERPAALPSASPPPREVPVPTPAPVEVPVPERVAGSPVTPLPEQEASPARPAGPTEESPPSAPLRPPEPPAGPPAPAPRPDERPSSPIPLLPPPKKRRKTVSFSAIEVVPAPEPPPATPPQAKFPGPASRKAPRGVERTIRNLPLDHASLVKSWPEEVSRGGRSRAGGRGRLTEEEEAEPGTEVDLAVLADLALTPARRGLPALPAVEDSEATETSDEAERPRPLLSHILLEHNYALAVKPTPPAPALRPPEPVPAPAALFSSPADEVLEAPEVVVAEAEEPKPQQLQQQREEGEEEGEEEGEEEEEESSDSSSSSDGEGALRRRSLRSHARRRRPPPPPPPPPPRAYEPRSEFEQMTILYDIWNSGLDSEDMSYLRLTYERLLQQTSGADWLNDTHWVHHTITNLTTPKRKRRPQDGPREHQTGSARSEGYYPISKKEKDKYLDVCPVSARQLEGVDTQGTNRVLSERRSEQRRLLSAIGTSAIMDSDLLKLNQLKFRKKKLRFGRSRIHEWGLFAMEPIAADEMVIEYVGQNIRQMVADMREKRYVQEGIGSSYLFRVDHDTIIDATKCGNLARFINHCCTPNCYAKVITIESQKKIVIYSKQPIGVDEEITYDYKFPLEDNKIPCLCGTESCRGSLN
# UniProt Q9UQ35: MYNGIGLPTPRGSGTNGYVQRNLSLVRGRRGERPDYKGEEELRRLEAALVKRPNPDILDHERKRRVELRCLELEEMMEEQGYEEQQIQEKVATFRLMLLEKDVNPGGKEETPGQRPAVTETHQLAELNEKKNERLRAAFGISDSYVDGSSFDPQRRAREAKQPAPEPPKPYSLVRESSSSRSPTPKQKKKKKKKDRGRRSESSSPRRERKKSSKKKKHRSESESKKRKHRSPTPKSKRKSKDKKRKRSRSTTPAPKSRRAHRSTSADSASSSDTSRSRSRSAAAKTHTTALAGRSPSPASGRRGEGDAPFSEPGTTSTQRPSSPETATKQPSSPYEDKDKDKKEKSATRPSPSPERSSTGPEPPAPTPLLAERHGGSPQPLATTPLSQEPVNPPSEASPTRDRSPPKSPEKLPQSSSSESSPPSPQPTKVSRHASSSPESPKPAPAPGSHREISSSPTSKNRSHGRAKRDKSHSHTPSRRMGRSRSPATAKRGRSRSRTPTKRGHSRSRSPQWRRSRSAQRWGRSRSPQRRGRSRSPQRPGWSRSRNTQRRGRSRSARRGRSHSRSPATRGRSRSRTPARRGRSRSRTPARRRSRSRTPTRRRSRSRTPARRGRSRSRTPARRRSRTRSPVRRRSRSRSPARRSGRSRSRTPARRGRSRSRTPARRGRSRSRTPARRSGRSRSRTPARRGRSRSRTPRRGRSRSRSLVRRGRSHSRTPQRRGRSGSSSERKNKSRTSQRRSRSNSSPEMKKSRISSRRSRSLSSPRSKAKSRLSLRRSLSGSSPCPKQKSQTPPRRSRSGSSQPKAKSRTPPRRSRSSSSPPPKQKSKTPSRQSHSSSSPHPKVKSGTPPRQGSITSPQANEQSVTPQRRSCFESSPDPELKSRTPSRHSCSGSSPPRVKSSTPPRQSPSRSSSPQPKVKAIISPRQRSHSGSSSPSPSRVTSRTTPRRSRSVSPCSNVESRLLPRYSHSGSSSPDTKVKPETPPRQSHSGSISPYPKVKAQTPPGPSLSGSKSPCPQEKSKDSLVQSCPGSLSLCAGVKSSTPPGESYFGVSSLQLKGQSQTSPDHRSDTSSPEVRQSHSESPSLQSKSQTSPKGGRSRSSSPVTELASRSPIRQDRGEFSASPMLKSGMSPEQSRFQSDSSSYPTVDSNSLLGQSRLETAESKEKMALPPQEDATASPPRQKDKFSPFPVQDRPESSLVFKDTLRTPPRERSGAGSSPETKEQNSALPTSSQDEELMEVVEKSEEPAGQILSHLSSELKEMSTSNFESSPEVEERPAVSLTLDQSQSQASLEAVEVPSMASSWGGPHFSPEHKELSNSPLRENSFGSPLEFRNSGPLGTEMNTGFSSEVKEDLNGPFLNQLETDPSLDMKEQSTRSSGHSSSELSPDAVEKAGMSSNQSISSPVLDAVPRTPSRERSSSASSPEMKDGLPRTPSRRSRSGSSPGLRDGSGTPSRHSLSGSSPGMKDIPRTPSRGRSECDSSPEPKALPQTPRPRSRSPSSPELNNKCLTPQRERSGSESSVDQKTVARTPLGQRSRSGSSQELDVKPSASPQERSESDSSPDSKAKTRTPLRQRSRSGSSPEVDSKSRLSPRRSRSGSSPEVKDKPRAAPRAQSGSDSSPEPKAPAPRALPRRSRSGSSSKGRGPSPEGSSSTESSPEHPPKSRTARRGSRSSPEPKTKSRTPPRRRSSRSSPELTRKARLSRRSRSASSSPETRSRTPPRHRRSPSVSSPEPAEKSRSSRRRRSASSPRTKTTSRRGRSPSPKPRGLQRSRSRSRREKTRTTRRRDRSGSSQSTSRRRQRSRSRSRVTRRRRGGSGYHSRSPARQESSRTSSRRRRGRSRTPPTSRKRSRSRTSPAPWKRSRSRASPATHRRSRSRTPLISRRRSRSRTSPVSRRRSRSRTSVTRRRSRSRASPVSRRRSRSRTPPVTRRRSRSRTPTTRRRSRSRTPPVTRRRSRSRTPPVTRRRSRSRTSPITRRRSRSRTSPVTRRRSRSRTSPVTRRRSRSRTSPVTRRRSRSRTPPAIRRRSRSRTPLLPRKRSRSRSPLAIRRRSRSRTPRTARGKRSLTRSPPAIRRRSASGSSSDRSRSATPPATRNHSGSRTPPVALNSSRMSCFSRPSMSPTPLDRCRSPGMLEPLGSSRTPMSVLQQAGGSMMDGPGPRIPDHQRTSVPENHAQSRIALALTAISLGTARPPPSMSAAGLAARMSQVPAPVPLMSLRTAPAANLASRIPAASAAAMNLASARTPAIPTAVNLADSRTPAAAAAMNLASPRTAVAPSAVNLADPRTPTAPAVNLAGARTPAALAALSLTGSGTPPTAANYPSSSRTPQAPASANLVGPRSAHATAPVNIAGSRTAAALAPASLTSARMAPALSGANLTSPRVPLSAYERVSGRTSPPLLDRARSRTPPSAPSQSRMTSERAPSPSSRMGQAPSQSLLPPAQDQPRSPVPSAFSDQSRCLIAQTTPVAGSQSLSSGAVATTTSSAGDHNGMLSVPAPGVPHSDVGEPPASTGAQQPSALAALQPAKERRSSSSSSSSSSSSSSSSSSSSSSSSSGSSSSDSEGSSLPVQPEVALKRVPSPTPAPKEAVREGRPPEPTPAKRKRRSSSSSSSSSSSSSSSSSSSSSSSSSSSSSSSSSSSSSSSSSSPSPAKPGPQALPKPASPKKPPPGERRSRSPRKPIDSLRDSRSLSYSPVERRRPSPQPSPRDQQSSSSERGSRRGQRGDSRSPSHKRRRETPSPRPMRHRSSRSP
# UniProt P49840: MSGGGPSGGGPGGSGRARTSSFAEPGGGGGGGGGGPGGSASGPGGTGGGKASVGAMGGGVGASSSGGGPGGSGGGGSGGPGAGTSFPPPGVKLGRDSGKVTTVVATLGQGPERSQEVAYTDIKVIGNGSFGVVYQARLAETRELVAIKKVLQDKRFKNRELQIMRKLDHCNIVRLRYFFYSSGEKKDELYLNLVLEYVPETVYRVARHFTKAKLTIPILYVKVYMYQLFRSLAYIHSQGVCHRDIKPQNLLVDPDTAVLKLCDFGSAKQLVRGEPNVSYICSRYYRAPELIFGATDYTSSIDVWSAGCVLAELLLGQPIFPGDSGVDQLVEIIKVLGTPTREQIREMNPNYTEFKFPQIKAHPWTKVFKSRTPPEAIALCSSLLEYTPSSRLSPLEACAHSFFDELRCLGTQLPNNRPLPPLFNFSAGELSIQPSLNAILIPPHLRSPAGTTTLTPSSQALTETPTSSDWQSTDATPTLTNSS
# UniProt P49841: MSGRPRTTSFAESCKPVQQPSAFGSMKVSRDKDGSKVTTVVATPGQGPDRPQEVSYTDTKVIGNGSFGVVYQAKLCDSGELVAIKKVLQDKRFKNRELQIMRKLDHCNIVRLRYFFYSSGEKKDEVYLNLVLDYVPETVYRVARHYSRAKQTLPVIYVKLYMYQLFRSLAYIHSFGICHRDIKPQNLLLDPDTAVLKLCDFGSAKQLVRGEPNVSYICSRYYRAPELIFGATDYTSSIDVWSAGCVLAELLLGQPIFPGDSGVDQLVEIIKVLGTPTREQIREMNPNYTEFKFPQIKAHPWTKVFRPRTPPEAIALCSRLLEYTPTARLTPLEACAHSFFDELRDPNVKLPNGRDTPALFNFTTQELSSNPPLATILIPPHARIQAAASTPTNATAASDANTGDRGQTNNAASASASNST
# Like-named read-outs stand apart in the source and are kept apart here. These are yes or no findings as the source states them, for the method shown. Binding seen in cells or lysates may run through a third protein. Here binding means that the protein was enriched with, or labelled near, the bait; the list need not be complete. For some of these results: A no says only that the protein was not detected with the bait.
# Assays:
# Assay in all cases: affinity purification with mass spectrometry
# [1] = target: SP4 (human (endogenous in human stem cell-derived neuronal cells and human cortex)) (UniProt Q02446)
# [2] = target: MAGI2 (human (endogenous in human stem cell-derived neuronal cells and human cortex)) (UniProt Q86UL8)
# [3] = target: T1, ZMYM2 (human (endogenous in human stem cell-derived neuronal cells and human cortex)) (UniProt Q9UBW7)
# T1 sequence: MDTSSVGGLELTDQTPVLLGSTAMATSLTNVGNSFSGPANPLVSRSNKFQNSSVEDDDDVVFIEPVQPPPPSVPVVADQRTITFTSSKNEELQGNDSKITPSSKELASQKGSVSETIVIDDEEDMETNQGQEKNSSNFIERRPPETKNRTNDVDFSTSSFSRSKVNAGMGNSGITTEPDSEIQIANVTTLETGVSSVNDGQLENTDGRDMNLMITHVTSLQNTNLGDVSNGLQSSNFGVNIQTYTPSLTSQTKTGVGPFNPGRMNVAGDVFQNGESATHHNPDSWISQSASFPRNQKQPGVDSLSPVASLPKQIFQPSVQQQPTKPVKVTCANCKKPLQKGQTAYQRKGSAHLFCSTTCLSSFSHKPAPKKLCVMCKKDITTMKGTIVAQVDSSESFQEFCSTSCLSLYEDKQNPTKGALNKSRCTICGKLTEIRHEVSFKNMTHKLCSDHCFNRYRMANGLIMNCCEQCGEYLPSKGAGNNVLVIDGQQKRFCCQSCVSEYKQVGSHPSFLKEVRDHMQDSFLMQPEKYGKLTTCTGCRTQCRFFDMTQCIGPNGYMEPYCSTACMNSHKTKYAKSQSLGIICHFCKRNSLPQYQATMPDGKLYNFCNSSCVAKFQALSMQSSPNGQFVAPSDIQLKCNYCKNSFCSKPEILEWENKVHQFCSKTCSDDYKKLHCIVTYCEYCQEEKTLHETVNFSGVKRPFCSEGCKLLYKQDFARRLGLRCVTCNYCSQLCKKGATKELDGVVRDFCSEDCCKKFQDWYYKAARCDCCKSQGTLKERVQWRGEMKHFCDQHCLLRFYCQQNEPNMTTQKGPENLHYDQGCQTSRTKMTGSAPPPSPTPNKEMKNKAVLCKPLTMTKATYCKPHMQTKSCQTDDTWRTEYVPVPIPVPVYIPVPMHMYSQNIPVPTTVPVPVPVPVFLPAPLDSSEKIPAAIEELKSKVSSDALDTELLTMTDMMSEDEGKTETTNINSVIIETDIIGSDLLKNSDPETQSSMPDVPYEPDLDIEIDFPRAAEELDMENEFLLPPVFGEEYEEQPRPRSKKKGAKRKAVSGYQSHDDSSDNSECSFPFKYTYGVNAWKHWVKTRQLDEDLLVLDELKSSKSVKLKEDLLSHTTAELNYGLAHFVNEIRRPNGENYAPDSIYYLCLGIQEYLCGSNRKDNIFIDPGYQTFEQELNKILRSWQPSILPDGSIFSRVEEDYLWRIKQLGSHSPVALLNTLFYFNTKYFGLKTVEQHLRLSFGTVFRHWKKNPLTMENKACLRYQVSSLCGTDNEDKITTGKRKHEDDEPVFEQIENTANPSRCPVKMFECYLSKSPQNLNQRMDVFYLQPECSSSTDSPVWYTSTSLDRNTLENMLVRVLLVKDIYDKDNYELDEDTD
# [4] = target: SETD1A (human (endogenous in human stem cell-derived neuronal cells and human cortex)) (UniProt O15047)
# [5] = target: GRIA3 (human (endogenous in human stem cell-derived neuronal cells and human cortex)) (UniProt P42263)
# [6] = target: T2, XPO7 (human (endogenous in human stem cell-derived neuronal cells and human cortex)) (UniProt Q9UIA9)
# T2 sequence: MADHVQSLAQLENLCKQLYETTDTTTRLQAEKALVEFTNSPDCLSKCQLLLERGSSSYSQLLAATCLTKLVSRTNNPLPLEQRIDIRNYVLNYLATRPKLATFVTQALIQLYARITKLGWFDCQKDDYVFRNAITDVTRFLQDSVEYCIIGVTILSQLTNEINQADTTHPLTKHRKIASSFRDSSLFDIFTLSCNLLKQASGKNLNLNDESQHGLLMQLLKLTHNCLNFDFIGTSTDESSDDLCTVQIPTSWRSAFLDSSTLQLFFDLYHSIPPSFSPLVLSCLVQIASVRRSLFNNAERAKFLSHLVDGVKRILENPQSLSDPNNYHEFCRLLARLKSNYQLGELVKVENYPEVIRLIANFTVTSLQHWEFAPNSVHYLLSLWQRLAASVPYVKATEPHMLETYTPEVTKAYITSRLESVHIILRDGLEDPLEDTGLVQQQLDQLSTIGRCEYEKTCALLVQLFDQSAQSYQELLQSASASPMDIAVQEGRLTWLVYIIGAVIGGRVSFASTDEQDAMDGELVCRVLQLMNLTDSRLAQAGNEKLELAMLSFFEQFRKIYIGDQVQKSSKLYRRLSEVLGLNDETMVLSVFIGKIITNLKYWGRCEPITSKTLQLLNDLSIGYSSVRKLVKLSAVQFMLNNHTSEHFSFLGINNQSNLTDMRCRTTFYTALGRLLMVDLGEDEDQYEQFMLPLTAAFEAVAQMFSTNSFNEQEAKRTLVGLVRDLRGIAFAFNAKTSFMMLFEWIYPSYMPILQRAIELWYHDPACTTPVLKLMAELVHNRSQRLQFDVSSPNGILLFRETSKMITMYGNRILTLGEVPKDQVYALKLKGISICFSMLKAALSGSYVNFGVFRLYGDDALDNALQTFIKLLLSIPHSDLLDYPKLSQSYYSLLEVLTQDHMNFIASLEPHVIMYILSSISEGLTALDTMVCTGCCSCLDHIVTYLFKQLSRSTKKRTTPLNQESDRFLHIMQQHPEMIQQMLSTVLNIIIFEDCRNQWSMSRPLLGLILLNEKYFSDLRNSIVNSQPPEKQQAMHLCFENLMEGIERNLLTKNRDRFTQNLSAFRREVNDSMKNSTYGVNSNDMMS
# [7] = target: RB1CC1 (human (endogenous in human stem cell-derived neuronal cells and human cortex)) (UniProt Q8TDY2)
# [8] = target: T3, HCN4 (human (endogenous in human stem cell-derived neuronal cells and human cortex)) (UniProt Q9Y3Q4)
# T3 sequence: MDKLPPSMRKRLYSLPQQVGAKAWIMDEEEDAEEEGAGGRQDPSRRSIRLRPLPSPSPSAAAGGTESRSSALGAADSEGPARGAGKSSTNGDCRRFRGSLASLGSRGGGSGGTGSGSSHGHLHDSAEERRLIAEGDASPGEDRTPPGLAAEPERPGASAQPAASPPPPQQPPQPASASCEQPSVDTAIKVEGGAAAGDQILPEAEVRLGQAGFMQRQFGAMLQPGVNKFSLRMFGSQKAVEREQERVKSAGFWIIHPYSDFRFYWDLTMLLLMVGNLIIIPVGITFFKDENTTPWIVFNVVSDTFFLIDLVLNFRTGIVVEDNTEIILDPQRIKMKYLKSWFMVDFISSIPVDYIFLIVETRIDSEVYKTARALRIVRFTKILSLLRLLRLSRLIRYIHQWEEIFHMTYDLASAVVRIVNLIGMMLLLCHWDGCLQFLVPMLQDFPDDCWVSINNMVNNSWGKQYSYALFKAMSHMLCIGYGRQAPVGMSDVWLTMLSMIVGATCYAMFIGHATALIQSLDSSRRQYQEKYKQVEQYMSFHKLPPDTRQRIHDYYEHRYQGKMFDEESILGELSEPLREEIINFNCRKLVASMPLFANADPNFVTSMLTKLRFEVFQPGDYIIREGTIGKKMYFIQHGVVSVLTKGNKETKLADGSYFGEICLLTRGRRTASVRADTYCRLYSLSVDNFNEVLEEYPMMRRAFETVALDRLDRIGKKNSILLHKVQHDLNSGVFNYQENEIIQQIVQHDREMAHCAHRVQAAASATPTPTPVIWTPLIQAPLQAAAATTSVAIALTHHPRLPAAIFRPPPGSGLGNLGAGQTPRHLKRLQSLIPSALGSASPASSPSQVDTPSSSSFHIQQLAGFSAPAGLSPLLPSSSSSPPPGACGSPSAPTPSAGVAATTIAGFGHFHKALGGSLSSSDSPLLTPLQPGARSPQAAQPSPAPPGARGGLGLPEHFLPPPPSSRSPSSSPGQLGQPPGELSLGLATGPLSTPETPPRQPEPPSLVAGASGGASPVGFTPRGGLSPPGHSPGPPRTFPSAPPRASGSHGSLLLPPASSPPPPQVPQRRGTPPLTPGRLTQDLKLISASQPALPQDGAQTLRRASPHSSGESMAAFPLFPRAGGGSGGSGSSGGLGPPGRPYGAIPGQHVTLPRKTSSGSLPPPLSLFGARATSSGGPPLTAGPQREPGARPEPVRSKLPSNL
# [9] = target: TRIO (human (endogenous in human stem cell-derived neuronal cells and human cortex)) (UniProt O75962)
# [10] = target: SRRM2 (human (endogenous in human stem cell-derived neuronal cells and human cortex)) (UniProt Q9UQ35)
# [11] = target: HERC1 (human (endogenous in human stem cell-derived neuronal cells and human cortex)) (UniProt Q15751)
# [12] = target: CUL1 (human (endogenous in human stem cell-derived neuronal cells and human cortex)) (UniProt Q13616)
# [13] = target: TRIO (human (endogenous in human stem cell-derived neuronal cells and human cortex)) (UniProt O75962); remark: listed apart in the source
# [14] = target: SRRM2 (human (endogenous in human stem cell-derived neuronal cells and human cortex)) (UniProt Q9UQ35); remark: listed apart in the source
binding [1],binding [2],binding [3],binding [4],binding [5],binding [6],binding [7],binding [8],binding [9],binding [10],binding [11],binding [12],binding [13],binding [14],Substance
no binding,no binding,no binding,no binding,no binding,no binding,no binding,no binding,no binding,no binding,no binding,no binding,,,GSK3A (from UniProt P49840 1-483) (enzyme)
,,,,,,,,binds,binds,,,binds,binds,Glycogen Synthase Kinase-3 Beta (from UniProt P49841 1-420) (enzyme)
